The experiment relates to P388 leukemia ip, CD2F1 mice, survival T/C. Nature of the experiment: NCI In Vivo Anticancer Drug Screen. Data for tumor model P388 Leukemia (intraperitoneal) in CD2F1 (CDF1) mice. Particulars: T/C endpoint: median survival time, higher T/C = longer survival.
Where [1] appears, read: dose: 100.0 mg/kg/injection, schedule: Q04DX003 (ip), vehicle: saline with Tween-80.
The mark [2] stands for this setting: dose: 200.0 mg/kg/injection, schedule: Q04DX003 (ip), vehicle: saline with Tween-80.
Where [3] appears, read: dose: 400.0 mg/kg/injection, schedule: Q04DX003 (ip), vehicle: saline with Tween-80.
[4] abbreviates: dose: 50.0 mg/kg/injection, schedule: Q01DX009 (ip), vehicle: saline with Tween-80.
[5] abbreviates: dose: 100.0 mg/kg/injection, schedule: Q01DX009 (ip), vehicle: saline with Tween-80.
Setting [6] is: dose: 200.0 mg/kg/injection, schedule: Q01DX009 (ip), vehicle: saline with Tween-80.
[7] abbreviates: dose: 240.0 mg/kg/injection, schedule: Q01DX005 (ip), vehicle: saline with Tween-80.
[8] abbreviates: dose: 50.0 mg/kg/injection, schedule: Q01DX009 (ip), vehicle: saline.
[9] abbreviates: dose: 200.0 mg/kg/injection, schedule: Q01DX009 (ip), vehicle: saline.
Where [10] appears, read: dose: 100.0 mg/kg/injection, schedule: Q01DX005 (ip), vehicle: saline with Tween-80.
The mark [11] stands for this setting: dose: 200.0 mg/kg/injection, schedule: Q01DX005 (ip), vehicle: saline with Tween-80.
Where [12] appears, read: dose: 200.0 mg/kg/injection, schedule: Q01DX005 (ip), vehicle: Klucel (hydroxypropylcellulose) (HPC).
The mark [13] stands for this setting: dose: 50.0 mg/kg/injection, schedule: Q01DX009 (ip), vehicle: water.
The mark [14] stands for this setting: dose: 25.0 mg/kg/injection, schedule: Q01DX009 (ip), vehicle: saline.
Setting [15] is: dose: 100.0 mg/kg/injection, schedule: Q01DX009 (ip), vehicle: saline.
The mark [16] stands for this setting: dose: 12.5 mg/kg/injection, schedule: Q01DX009 (ip), vehicle: saline.

The list shows only some results of the screen, not a fair sample: it gathers tests that were run many times, whatever their T/C, doses with no T/C, and many T/C values between a quarter and a half above the control. Further doses and runs are listed elsewhere. T/C gives the treated animals as a percentage of the vehicle group. Some doses have a count of surviving animals in place of a T/C: the source files T/C as zero there, which appears to mark a toxic dose or a test without result, not a measured value. Some doses without a T/C left all or most animals alive at the check, yet need not have been tolerated: the source hardly ever lists a survival T/C far under the control, and the zero likely stands for such cases as well. Counts of survivors are from the toxicity check (mostly the fifth day) where no day follows; animals may have died later. Schedule codes are those of the source, read here as Q, the interval in days (D) or hours (H), X, the number of doses. Some entries hold several experiments; the results are listed from low to high. Where survival is the endpoint, this PubChem deposit counts one and a half times the control or more as active, and values a quarter to a half above the control carry no call in these data; other NCI protocols may use other cut-offs.

On to `CC(C)(C)c1ccc(C(=O)O)c(O)c1.CC(C)(C)c1ccc(C(=O)O)c(O)c1.[Cu]`, for which the survivor count is recorded as 3 of 6 under setting [1], 3 of 6 under setting [2] and 0 of 6 under setting [3].
With `Cc1ccc(C(SCC(N)C(=O)O)(c2ccccc2)c2ccccc2)cc1` (stereo not given), the T/C (dose: 6.25 mg/kg/injection, schedule: Q01DX009 (ip), vehicle: saline with Tween-80) was 140 % of control. Further, the survivor count reads like this: under setting [4], 6 of 6; under setting [5], 6 of 6; under setting [6], 6 of 6.
On to `N#CC(c1ccccc1)c1ccc2ccccc2n1` (stereo not given), for which the survivor count under setting [7] is on record as 6 of 6.
As for `O=C(OCN1C(=O)C2C3C=CC(C2C1=O)C1C2C(=O)N(COC(=O)C4CCCN4)C(=O)C2C31)C1CCCN1` (stereo not given), under setting [8], the T/C was 128 % of control. Besides, the survivor count under setting [9] is given as 4 of 6.
`c1cc2nc(-c3ccc4nc(C5=NCCN5)[nH]c4c3)[nH]c2cc1C1=NCCN1`: the survivor count is reported as 6 of 6 (dose: 12.5 mg/kg/injection, schedule: Q01DX005 (ip), vehicle: saline); 0 of 6 (dose: 100.0 mg/kg/injection, schedule: Q01DX005 (ip), vehicle: saline); 0 of 6 (dose: 200.0 mg/kg/injection, schedule: Q01DX005 (ip), vehicle: saline).
On to `CC(C)(C)C(S)CS` (stereo not given), for which the survivor count is 0 of 6 under setting [10] and 0 of 6 under setting [11].
For the compound `N#CN=[N+]([O-])c1cccc(Br)c1`, the survivor count is listed as 3 of 6 (dose: 100.0 mg/kg/injection, schedule: Q04DX003 (ip), vehicle: Klucel (hydroxypropylcellulose) (HPC)) and 0 of 6 (dose: 200.0 mg/kg/injection, schedule: Q04DX003 (ip), vehicle: Klucel (hydroxypropylcellulose) (HPC)).
For `CC(C)CCC[C@@H](C)[C@H]1CC[C@H]2[C@@H]3CC[C@H]4C[C@H](N)CC[C@]4(C)[C@H]3CC[C@]12C`, the survivor count was 0 of 5 (dose: 100.0 mg/kg/injection, schedule: Q01DX005 (ip), vehicle: Klucel (hydroxypropylcellulose) (HPC)) and 0 of 5 under setting [12].
For the compound `CCOC(C)(c1ccc(Cl)cc1)C1CCNCC1` (stereo not given), the survivor count under setting [6] is 0 of 6.
For `NC(=O)NN=C(C(F)(F)F)C(F)(F)F`, the survivor count under setting [6] is listed as 2 of 6.
Turning to `O=NNc1cnc(-c2ccccc2)c(-c2ccccc2)n1`, under setting [13], the T/C is 134 and 145 % of control.
In the case of `CNC(=O)OCc1nc(SC)n(-c2ccccc2)c1COC(=O)NC`, the T/C (dose: 200.0 mg/kg/injection, schedule: Q01DX005 (ip), vehicle: distilled water + Tween-80) was 127 and 141 % of control. Further, the survivor count (dose: 400.0 mg/kg/injection, schedule: Q01DX005 (ip), vehicle: distilled water + Tween-80) is recorded as 2 of 6.
With `COC1=CC(=O)C(CO)=CC1=O`, the survivor count reads like this: under setting [14], 3 of 6; under setting [8], 0 of 6; under setting [15], 0 of 6; under setting [9], 0 of 6.
On to `O=C(CCl)N1c2ccccc2Sc2ccc(Cl)cc21`, for which the T/C reads like this: (dose: 25.0 mg/kg/injection, schedule: Q01DX009 (ip), vehicle: water) 125 % of control; under setting [13], 125 % of control.
In the case of `CCC[CH2][Sn]([CH2]CCC)([CH2]CCC)[CH2]CC[N+](C)(C)C.CS(=O)(=O)[O-]`, the survivor count is, setting by setting: (dose: 6.25 mg/kg/injection, schedule: Q01DX009 (ip), vehicle: saline) 2 of 6; under setting [16], 2 of 6; under setting [14], 0 of 6; under setting [8], 0 of 6; under setting [15], 0 of 6; under setting [9], 0 of 6.
Regarding `Cc1cc(C)c(C#N)c(OCC2CCCO2)n1` (stereo not given), the survivor count under setting [11] is listed as 5 of 5.
`O=C(O)/C(O)=C/c1ccccc1`: the survivor count (dose: 50.0 mg/kg/injection, schedule: Q04DX003 (ip), vehicle: saline with Tween-80) was 3 of 6; the survivor count under setting [1] is 2 of 6 and 4 of 6; the survivor count under setting [3] is recorded as 1 of 6.
As for `NNc1cc2c(nn1)CCN(C(=O)c1ccccc1)C2`, under setting [9], the survivor count is given as 2 of 6.
Turning to `O=c1c2ccccc2nc(CCN(CCCl)CCCl)n1-c1ccc(Cl)cc1`, the T/C (dose: 100.0 mg/kg/injection, schedule: Q01DX001 (ip), vehicle: saline) was 135 and 138 % of control; the T/C (dose: 200.0 mg/kg/injection, schedule: Q01DX001 (ip), vehicle: saline) is 147 % of control. For the same compound, the survivor count (dose: 400.0 mg/kg/injection, schedule: Q01DX001 (ip), vehicle: saline) is 1 of 6.
For `CCOC(=O)CC(=O)C(C)(OCC)OCC`, under setting [8], the T/C is 134 % of control.
With `CCCCCCCC/C=C\CCCCCCCCSC1=CC(=O)C(OC)=C(OC)C1=O`, the survivor count (dose: 50.0 mg/kg/injection, schedule: Q01DX009 (ip), vehicle: Klucel (hydroxypropylcellulose) (HPC)) is given as 4 of 6.
For `Cc1cnc(C)c(NN=O)n1`, the T/C was 131 % of control under setting [16]; 126 and 133 % of control under setting [14]. In addition, the survivor count under setting [8] was 6 of 6.
Take `O=C(NNC1CCN(Cc2ccccc2)CC1)c1ccccc1`: the survivor count (dose: 40.0 mg/kg/injection, schedule: Q04DX003 (ip), vehicle: saline with Tween-80) is listed as 2 of 6.
Consider `Nc1nc(N)c(Cc2ccccn2)cc1Cc1ccccn1`, for which, under setting [12], the survivor count is reported as 1 of 6.
As for `O=C(N=Nc1c(Cl)c(O)c2ccccc2c1O)c1ccccc1O`, the survivor count by setting is: under setting [5], 5 of 6; under setting [6], 0 of 6.
Turning to `N#Cc1nnn(-c2ccc(Cl)cc2)c1N`, the survivor count under setting [12] is recorded as 5 of 5.
For the compound `CCCCCCCCC[N+]1(CC)CCCCC1`, the survivor count is reported as 0 of 6 under setting [8], 0 of 6 under setting [15] and 0 of 6 under setting [9].
`Cn1c2ccccc2c2nnc(N/N=C/c3cccnc3)nc21`: the survivor count is 6 of 6 (dose: 100.0 mg/kg/injection, schedule: Q04DX002 (ip), vehicle: saline with Tween-80) and 6 of 6 (dose: 200.0 mg/kg/injection, schedule: Q04DX002 (ip), vehicle: saline with Tween-80).
For `CCOC(=O)CN(CCN(CC)CC)c1ccc([N+](=O)[O-])cc1[N+](=O)[O-]`, the survivor count (dose: 400.0 mg/kg/injection, schedule: Q01DX001 (ip), vehicle: other) was 4 of 6.
On to `Cc1c2c(cc3c4ccccc4n(C)c13)C(=O)OC2=O`, for which the survivor count is, setting by setting: (dose: 3.12 mg/kg/injection, schedule: Q01DX005 (ip), vehicle: Klucel (hydroxypropylcellulose) (HPC)) 6 of 6; (dose: 12.5 mg/kg/injection, schedule: Q01DX005 (ip), vehicle: Klucel (hydroxypropylcellulose) (HPC)) 5 of 5 and 6 of 6; (dose: 25.0 mg/kg/injection, schedule: Q01DX005 (ip), vehicle: Klucel (hydroxypropylcellulose) (HPC)) 5 of 5; (dose: 50.0 mg/kg/injection, schedule: Q01DX005 (ip), vehicle: Klucel (hydroxypropylcellulose) (HPC)) 5 of 5.
`Cc1c2cnccc2c(C)c2c1c1c(C)c3cnccc3c(C)c1n2C`: under “dose: 200.0 mg/kg/injection, schedule: Q04DX002 (ip), vehicle: distilled water + Tween-80”, the survivor count is reported as 6 of 6.
Regarding `CC(=N\N)/C(C)=N/N`, the survivor count runs as follows: under setting [4], 4 of 6; under setting [5], 1 of 6 and 3 of 6; under setting [6], 0 of 6.
Turning to `CCN(CC)CCOC(=O)c1ccc(N)c2ccccc12`, under setting [11], the survivor count is listed as 0 of 6.
Turning to `S=C(NC1CCCCC1)N1CCC(CCCC2CCN(C(=S)NC3CCCCC3)CC2)CC1`, the survivor count reads like this: under setting [1], 6 of 6; under setting [6], 6 of 6; under setting [2], 6 of 6.
For the compound `c1c[nH]c(C23CC4CC(CC(C4)C2)C3)n1`, the survivor count under setting [10] is 3 of 5 and the survivor count under setting [11] was 0 of 5.
In the case of `O=C(Nc1c(Cl)cccc1Cl)Oc1ccc(Cl)cc1`, the survivor count under setting [7] is 2 of 6.
